Results deposited as PubChem BioAssay AID504774 (Drosophila RNAi Screening Center, 2011).
Aim: 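Genes required for cells to withstand methyl methanesulphonate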 (primary screen). Cells: Drosophila Kc167 cells. Reagents: long dsRNA against Drosophila genes, about 0.25 µg dsRNA per well. Time to read-out: about 6 days: 3 days knock-down, then 3 days with or without MMS. Challenge: methyl methanesulphonate 0.004% (w/v) for 3 days after knock-down. Measurement: 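ATP-dependent luminescence as a measure of live cells in MMS-exposed wells, quantile normalised within each plate, with replicate values also given as a mean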. Reading the numbers: mean viability with MMS and viability with MMS: higher = more surviving cells after MMS.
The deposit covers about 23,000 reagents; this is an unselected part of those with a known target gene and a result. 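Values are quantile-normalised luminescence on an arbitrary scale; higher means more cells surviving MMS.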 Names joined by + are all predicted targets of the reagent. Further read-outs or replicates are left out here.

obst-E
- mean viability with MMS: 3.48e6
- viability with MMS, replicate 1: 3.89e6

CG3604
- mean viability with MMS: 3.47e6
- viability with MMS, replicate 1: 3.92e6

RpL34b
- mean viability with MMS: 3.46e6
- viability with MMS, replicate 1: 3.93e6

MED8
- mean viability with MMS: 3.44e6
- viability with MMS, replicate 1: 4.03e6

BomS3
- mean viability with MMS: 3.50e6
- viability with MMS, replicate 1: 3.94e6

sob
- mean viability with MMS: 3.31e6
- viability with MMS, replicate 1: 3.63e6

EndoU
- mean viability with MMS: 3.47e6
- viability with MMS, replicate 1: 3.94e6

CG8012
- mean viability with MMS: 3.39e6
- viability with MMS, replicate 1: 3.80e6

Hap40
- mean viability with MMS: 3.68e6
- viability with MMS, replicate 1: 4.17e6

Xpac
- mean viability with MMS: 3.54e6
- viability with MMS, replicate 1: 4.02e6

CG4702
- mean viability with MMS: 3.51e6
- viability with MMS, replicate 1: 3.89e6

HP5
- mean viability with MMS: 3.62e6
- viability with MMS, replicate 1: 3.88e6

link
- mean viability with MMS: 3.39e6
- viability with MMS, replicate 1: 3.81e6

CG14180 (retired record)
- mean viability with MMS: 3.22e6
- viability with MMS, replicate 1: 3.54e6

SCCRO4
- mean viability with MMS: 3.70e6
- viability with MMS, replicate 1: 4.22e6

Fst
- mean viability with MMS: 3.56e6
- viability with MMS, replicate 1: 3.96e6

CG33937 (retired record)
- mean viability with MMS: 3.50e6
- viability with MMS, replicate 1: 3.92e6

CG13438
- mean viability with MMS: 3.50e6
- viability with MMS, replicate 1: 4.01e6

numb
- mean viability with MMS: 3.72e6
- viability with MMS, replicate 1: 4.25e6

CG6927
- mean viability with MMS: 3.73e6
- viability with MMS, replicate 1: 4.08e6

CG31016
- mean viability with MMS: 3.78e6
- viability with MMS, replicate 1: 4.21e6

CG33259
- mean viability with MMS: 3.51e6
- viability with MMS, replicate 1: 3.88e6

CG6928
- mean viability with MMS: 3.67e6
- viability with MMS, replicate 1: 4.26e6

Dys + snoRNA:Me18S-A1374
- mean viability with MMS: 3.41e6
- viability with MMS, replicate 1: 4.00e6

CG40045
- mean viability with MMS: 3.58e6
- viability with MMS, replicate 1: 4.00e6

Roc1a
- mean viability with MMS: 3.22e6
- viability with MMS, replicate 1: 3.70e6

CG12725
- mean viability with MMS: 3.61e6
- viability with MMS, replicate 1: 4.13e6

AnxB11
- mean viability with MMS: 3.31e6
- viability with MMS, replicate 1: 4.08e6

Dsor1
- mean viability with MMS: 3.43e6
- viability with MMS, replicate 1: 3.92e6

Datp
- mean viability with MMS: 3.49e6
- viability with MMS, replicate 1: 4.05e6

Cul2
- mean viability with MMS: 3.78e6
- viability with MMS, replicate 1: 4.25e6

Ugt37A2
- mean viability with MMS: 3.42e6
- viability with MMS, replicate 1: 3.96e6

Sema1b
- mean viability with MMS: 3.71e6
- viability with MMS, replicate 1: 4.21e6

puml
- mean viability with MMS: 3.55e6
- viability with MMS, replicate 1: 4.15e6

U2af38
- mean viability with MMS: 3.10e6
- viability with MMS, replicate 1: 3.26e6

Not a retest: 6 of the entries above.
AnxB11
- mean viability with MMS: 3.31e6
- viability with MMS, replicate 1: 4.08e6

Dsor1
- mean viability with MMS: 3.43e6
- viability with MMS, replicate 1: 3.92e6

Datp
- mean viability with MMS: 3.49e6
- viability with MMS, replicate 1: 4.05e6

Cul2
- mean viability with MMS: 3.78e6
- viability with MMS, replicate 1: 4.25e6

Ugt37A2
- mean viability with MMS: 3.42e6
- viability with MMS, replicate 1: 3.96e6

Sema1b
- mean viability with MMS: 3.71e6
- viability with MMS, replicate 1: 4.21e6
